The values that follow come from patent publication US5643726.

Chains of the proteins cited; added tags and fusions are not shown. A change or cut given only in a name is not applied to a line headed by its entry. Chains listed by the source or under a name are the forms on record and can include a tag or linker.
UniProt P22415: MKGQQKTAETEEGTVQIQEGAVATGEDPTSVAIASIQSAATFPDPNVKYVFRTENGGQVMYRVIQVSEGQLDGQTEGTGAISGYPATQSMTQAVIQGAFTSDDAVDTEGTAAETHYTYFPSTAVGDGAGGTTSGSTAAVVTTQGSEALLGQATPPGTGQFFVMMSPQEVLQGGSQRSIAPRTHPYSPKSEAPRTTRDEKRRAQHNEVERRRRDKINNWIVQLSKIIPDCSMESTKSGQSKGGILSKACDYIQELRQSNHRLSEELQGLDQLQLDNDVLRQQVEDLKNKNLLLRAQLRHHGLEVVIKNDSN
c-Fos/c-Jun (AP-1) in H4 nuclear extract (Homo sapiens), one chain, as listed by the source, chain 2 of 2: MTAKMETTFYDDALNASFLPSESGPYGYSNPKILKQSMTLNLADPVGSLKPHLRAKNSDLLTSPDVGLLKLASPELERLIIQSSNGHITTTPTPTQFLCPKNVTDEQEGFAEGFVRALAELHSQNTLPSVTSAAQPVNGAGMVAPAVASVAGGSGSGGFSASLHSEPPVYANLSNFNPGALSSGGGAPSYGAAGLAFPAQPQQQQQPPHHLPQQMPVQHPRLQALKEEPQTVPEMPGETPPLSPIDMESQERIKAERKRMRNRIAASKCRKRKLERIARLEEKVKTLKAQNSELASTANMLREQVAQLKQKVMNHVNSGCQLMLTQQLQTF
c-Fos/c-Jun (AP-1) in H4 nuclear extract (Homo sapiens), one chain, as listed by the source, chain 1 of 2: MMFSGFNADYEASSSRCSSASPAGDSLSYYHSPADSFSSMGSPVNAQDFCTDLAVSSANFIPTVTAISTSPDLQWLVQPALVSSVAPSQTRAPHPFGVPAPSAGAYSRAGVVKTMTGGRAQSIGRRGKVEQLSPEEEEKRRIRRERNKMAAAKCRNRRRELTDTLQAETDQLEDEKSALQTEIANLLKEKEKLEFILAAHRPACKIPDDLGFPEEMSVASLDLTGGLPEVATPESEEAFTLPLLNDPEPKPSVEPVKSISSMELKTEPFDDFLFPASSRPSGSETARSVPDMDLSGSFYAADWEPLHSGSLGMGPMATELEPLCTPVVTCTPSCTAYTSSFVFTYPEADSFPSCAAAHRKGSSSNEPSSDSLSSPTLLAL

For part of these data: Results from cells or extracts need not show a direct contact. For part of these data: No signal at the amounts used counts as a negative. For part of these data: For at least one entry, the source does not settle the construct or the ends of the probe.

The target in data set [1] is USF in H4 neuroglioma nuclear extract (43 kDa) (Homo sapiens) (UniProt P22415). Kind of data set: competition with a labelled probe. Conditions: protein in an extract.
The test system of data set [2] is c-Fos/c-Jun (AP-1) in H4 nuclear extract (Homo sapiens). Kind of data set: EMSA. The following applies: complex diminished by c-fos antibody; protein in an extract; label: 32P. For orientation: A gel shift assay detects complexes by their altered migration in electrophoresis.
Data set [3] relates to USF in HeLa nuclear extract (Homo sapiens). Briefly: competition with a labelled probe. Conditions: indirect, protein in an extract.
Data set [4] concerns the target USF in H4 neuroglioma nuclear extract (43 kDa) (Homo sapiens) (UniProt P22415). Kind of data set: EMSA. The following applies: protein in an extract, label: 32P.
Data set [5] relates to USF in HeLa nuclear extract (Homo sapiens). Briefly: EMSA. Conditions: 1 ug HeLa nuclear extract; more binding than H4 extract; protein in an extract; label: 32P.
The subject of data set [6] is c-Fos/c-Jun (AP-1) in H4 nuclear extract (Homo sapiens). Briefly: competition with a labelled probe. Conditions: 50-fold excess DK-1 did not affect AP-1 complex; c-fos mAb did not affect DK-1 complex; protein in an extract; label: 32P.
[7] abbreviates: competes with labeled DK-1, 0-50-fold.

On to “GATCACCAGCTGTGGAATGTGTGTGATC (double strand) [AP-4 consensus fragment]”, for which, in data set [1] (no competition with DK-1 up to 50-fold), the binding result was “no binding”.
Take “GATCCAGCTGACTCATCACTAG (double strand) [AP-1 consensus fragment]”: the binding result in data set [2] is reported as “binds”; in data set [1] (no competition with DK-1 up to 50-fold, anti-USF did not affect complex on AP-1 fragment, label: 32P) it was “no binding”.
With “GCTTACTGTCAGCTGACTCGCCTGGCTCT (double strand) [5' Random]”, the binding result in data set [1] (setting [7]) was “binds”.
Regarding “GGGCCGGAATCGTGCTGTCGCCTGGCTCT (double strand) [AP-1/AP-4 Random]”, the binding result in data set [1] (did not effectively compete, 0-50-fold) is “no binding”. Also, the “activity on this sequence” value in data set [3] (same molar excess does not decrease in vitro transcription from APP promoter) was “not active”.
As to “GGGCCGGATCACGTGACTCGCCTGGCTCT (double strand) [USF fragment]”, the binding result in data set [4] was “binds”. For the same sequence, the “activity on this sequence” value in data set [3] (20-fold excess decreases in vitro transcription from APP promoter, label: 32P) is reported as “active”.
Consider “GGGCCGGATCAGCTGACGATACCTGTCCG (double strand) [3' Random]”, for which, in data set [1] (setting [7]), the binding result is recorded as “binds”.
Regarding “GGGCCGGATCAGCTGACTCGCCTGGCTCT (double strand) [DK-1 fragment (APP promoter -58 to -30, AP-1/AP-4)]”, the binding result is “binds” in data set [4] (1 ug extract, 20 C, supershifted by anti-USF antiserum); “binds” in data set [5]; “no binding” in data set [6].
